This test has as its target NLRP3 (Homo sapiens, UniProt Q96P20). Kind of test: IC50 of NLRP3 inhibitors in reducing IL-1β secretion by THP-1 cells (PMA, LPS, nigericin; ELISA). The conditions noted are these: compound + nigericin 1 h. (An ELISA detects its analyte on a solid surface through an enzyme-linked reagent.)

By UniProt entry, the sequences of proteins in these tests, tags left out.
UniProt Q96P20, whole entry: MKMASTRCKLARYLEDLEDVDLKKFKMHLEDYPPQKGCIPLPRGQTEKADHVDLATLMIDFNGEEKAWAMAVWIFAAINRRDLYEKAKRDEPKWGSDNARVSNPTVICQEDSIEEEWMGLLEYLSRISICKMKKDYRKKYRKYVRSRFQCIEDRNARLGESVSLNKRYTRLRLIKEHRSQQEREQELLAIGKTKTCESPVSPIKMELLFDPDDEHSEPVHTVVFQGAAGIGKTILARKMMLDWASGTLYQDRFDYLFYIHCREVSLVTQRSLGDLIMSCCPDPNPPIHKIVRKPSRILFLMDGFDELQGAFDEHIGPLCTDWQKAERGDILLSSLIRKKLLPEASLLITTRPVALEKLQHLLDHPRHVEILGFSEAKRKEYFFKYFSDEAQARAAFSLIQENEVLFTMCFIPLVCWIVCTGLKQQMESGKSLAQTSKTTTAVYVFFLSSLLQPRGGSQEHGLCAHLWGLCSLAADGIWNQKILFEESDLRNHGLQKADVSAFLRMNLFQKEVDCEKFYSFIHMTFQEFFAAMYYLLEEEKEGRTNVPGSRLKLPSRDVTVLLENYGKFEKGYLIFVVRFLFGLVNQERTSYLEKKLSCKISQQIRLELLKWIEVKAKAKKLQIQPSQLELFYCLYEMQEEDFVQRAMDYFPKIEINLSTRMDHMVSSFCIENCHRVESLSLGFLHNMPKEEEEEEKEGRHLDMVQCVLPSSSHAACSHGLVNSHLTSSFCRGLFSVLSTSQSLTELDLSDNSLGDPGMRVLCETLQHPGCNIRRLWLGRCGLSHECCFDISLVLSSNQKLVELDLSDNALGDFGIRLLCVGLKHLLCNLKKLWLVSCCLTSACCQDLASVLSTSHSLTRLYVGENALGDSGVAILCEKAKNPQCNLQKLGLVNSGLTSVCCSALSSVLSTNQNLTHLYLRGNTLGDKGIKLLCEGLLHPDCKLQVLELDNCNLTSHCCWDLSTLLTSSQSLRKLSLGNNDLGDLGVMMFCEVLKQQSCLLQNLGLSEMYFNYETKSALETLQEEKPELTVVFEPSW

This note sets out measurements from patent US20260216182A1, “PYRIDAZINE NLRP3 INHIBITOR COMPOUND, PHARMACEUTICAL COMPOSITION, AND PREPARATION METHOD THEREFOR AND USE THEREOF” (CHANGCHUN GENESCIENCE PHARMACEUTICAL CO., LTD., priority 2022, published 2026).

As a reminder, the IC50 is the point on the concentration scale where inhibition reaches its midpoint.

The structures given here were assigned with low confidence; some may be wrong.

As for `CC#Cc1ccc2c(-c3c(C)cc(Cl)cc3O)nnc(NCC(C)(C)O)c2c1`, the concentration for half-maximal inhibition (IC50) was found to be 13 nM.
